## Percent effect of library compounds

The chains behind the UniProt entries cited, without tags or fusion partners.
UniProt P9WPC5, whole entry: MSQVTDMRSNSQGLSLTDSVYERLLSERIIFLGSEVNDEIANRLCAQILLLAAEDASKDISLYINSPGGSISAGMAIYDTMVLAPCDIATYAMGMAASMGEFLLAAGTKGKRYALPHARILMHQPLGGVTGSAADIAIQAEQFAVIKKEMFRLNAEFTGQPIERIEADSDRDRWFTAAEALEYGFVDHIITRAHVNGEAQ
UniProt P9WPC3, whole entry partner: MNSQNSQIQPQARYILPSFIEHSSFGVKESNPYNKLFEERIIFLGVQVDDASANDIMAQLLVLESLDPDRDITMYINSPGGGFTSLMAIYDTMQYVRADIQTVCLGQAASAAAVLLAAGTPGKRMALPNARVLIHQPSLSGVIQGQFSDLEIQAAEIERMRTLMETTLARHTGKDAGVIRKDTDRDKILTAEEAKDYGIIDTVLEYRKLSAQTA
UniProt P9WFT3, whole entry: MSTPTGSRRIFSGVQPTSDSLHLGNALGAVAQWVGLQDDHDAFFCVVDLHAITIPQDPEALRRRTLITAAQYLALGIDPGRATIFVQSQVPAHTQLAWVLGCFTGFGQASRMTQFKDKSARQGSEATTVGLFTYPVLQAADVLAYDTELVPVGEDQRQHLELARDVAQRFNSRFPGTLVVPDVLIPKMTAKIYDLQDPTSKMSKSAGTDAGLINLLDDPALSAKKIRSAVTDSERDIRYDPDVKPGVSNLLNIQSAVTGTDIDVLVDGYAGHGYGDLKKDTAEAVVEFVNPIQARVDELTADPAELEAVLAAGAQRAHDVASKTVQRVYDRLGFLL
UniProt P9WNZ1, whole entry: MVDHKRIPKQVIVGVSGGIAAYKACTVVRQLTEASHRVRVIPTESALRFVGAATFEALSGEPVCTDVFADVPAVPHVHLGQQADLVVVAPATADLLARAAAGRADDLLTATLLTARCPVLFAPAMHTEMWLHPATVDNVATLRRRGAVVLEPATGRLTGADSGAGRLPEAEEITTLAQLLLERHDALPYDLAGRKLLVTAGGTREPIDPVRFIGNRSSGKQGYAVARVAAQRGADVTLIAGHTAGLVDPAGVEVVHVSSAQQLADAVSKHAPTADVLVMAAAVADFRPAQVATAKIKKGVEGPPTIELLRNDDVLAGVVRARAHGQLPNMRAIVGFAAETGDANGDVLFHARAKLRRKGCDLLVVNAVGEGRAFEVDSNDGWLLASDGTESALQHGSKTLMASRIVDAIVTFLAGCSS

ClpP1P2: 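ClpP1P2, Mycobacterium tuberculosis (UniProt P9WPC5 and UniProt P9WPC3). Protease assay of ClpP1P2, read by the AMC dye that it sets free. Compounds at 50 µM. Direction is inferred from only a few compounds that gave an IC50; most scored high, so higher reads as stronger inhibition. Most other retested compounds had strongly negative values. Of about 69,000 compounds tested this way, about 10 (0.015%) reached 50% or more in at least one test.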
Toxoplasma: 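Assay of Toxoplasma gondii numbers, read through their beta-galactosidase reporter with a colour substrate. Concentration: 10 µM. Higher reads as fewer parasites (inferred from which compounds were picked for retests). Size under these conditions: about 67,000 compounds, about 260 of them at 50% or above in at least one test.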
MtTrpRS: 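Tryptophan-tRNA ligase, Mycobacterium tuberculosis (UniProt P9WFT3). Enzyme assay of tryptophanyl-tRNA synthetase; the read-out is not stated. Compounds at 10 µM. Direction is not recorded; retested compounds ran higher, which suggests that high means inhibition. Size under these conditions: about 65,000 compounds, about 64 of them at 50% or above in at least one test.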
CoaBC: 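Enzyme assay of CoaBC with a phosphate dye (Biomol Green) read at 650 nm. Target: Coenzyme A biosynthesis protein CoaBC, Mycobacterium tuberculosis (UniProt P9WNZ1). Compounds at 30 µM. Higher reads as stronger inhibition, judged from the few compounds that gave an IC50. Most strong results did not repeat in a second test. Of about 67,000 compounds tested this way, about 40 (0.06%) reached 50% or more in at least one test.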

Values are the deposited “Percent Effect”, in %.
The record does not define 0% and 100%; most values in the screen are far below 50% and negative numbers occur (in some assays of this library far below -100).
Compounds were drawn at random from those tested, without regard to their results.
A dash means the value is not listed here; it may have been measured.

| # | Compound | ClpP1P2 | Toxoplasma | MtTrpRS | CoaBC |
|---|---|---|---|---|---|
| 1 | `CCC/N=c1/c(NC(=O)NCCCOC)c(O)oc2ccccc12` | 11.16 | 13.12 | -0.1434 | -7.233 |
| 2 | `Cc1ccc(CN2CCCn3nnc(COCC4CC4)c3C2)s1.O=C(O)C(F)(F)F` | - | -1.719 | - | - |
| 3 | `O=C(c1ccc(F)c(Br)c1)N1CCCN2CCCC2C1` (stereo not given) | -7.527 | -1.364 | -1.33 | 8.56 |
| 4 | `Cn1cc(C2COC3(CCN(C(=O)Cn4cccn4)CC3)C2)cn1` (stereo not given) | 5.723 | 2.098 | -0.6103 | 3.856 |
| 5 | `Cc1nnc(SCCNc2cc(C3CC3)ncn2)s1` | -14.52 | 19.72 | -1.354 | 13.19 |
| 6 | `Cc1cc(C(=O)NCCN2CCN(S(C)(=O)=O)CC2)no1.Cl` | - | -5.07 | - | - |
| 7 | `CN(Cc1cc(Br)cn1C)C(=O)c1ccsc1` | 0.1143 | -9.779 | -1.486 | -0.9938 |
| 8 | `CS(=O)(=O)NC1CCN(C(=O)c2[nH]c3ccc(Cl)cc3c2Cl)CC1` | 5.094 | 1.123 | 5.083 | 2.161 |
| 9 | `c1cnnc(N[C@@H]2CC[C@@H]3CN(Cc4c[nH]c5ccccc45)C[C@@H]32)c1` | -21.64 | - | -2.263 | 14.16 |
| 10 | `c1cnnc(NCC2CN(CC3CCOCC3)CCO2)c1` (stereo not given) | -31.89 | -0.3141 | 0 | 3.584 |
| 11 | `Cc1nc(C)n(CC2CCCCN2CCCO)n1` (stereo not given) | 7.079 | 9.541 | 0.3915 | 1.956 |
| 12 | `Cc1nn2c(N3CCC(C#N)CC3)cc(-c3ccccc3)nc2c1C` | -18.95 | 20.64 | -1.616 | 7.879 |
| 13 | `COc1ccc(CNC(=O)N2CCOCC2C2CC2)c(C)c1` (stereo not given) | -6.984 | 3.869 | 1.312 | -7.592 |
| 14 | `c1ccc(CN2CCC3(CC2)CCN(Cc2cccnc2)C3)nc1` | 1.508 | - | -5.317 | -1.75 |
| 15 | `c1cc(-c2nc(C3CCN(Cc4ccsc4)CC3)no2)ccn1` | -9.904 | 18.19 | 4.812 | -2.19 |
| 16 | `CC(C)c1nnc(NC(=O)c2cccc(OCC(F)(F)F)n2)[nH]1` | 11.91 | -3.231 | -4.658 | -4.481 |
| 17 | `COc1ncc(-c2cc(NCCN(C)C)nc3[nH]ccc23)c(OC)n1` | 5.487 | - | -6.033 | 3.813 |
| 18 | `OC(COc1ccccc1)CN1CCN(c2nccs2)CC1` (stereo not given) | 7.846 | 4.302 | 0.6517 | 8.264 |
| 19 | `COc1ccc(C)cc1CC(=O)Nc1cc(C)n[nH]1` | -7.551 | -14.13 | 2.584 | -3.667 |
| 20 | `c1coc(-c2nnc(CN(Cc3cccs3)CC3CCCO3)o2)c1` (stereo not given) | -8.081 | -3.977 | 0.7597 | 7.004 |
| 21 | `CN(Cc1cscn1)Cc1cc2c(cc1Br)OCO2` | -5.368 | -10.63 | 0.9031 | 1.106 |
| 22 | `Cc1ccc2c(c1)nc1n2[C@@H](CNC(=O)c2cccnc2)COC1` | -7.467 | 15.04 | -0.5311 | 13.47 |
| 23 | `CN1CCN(C(=O)Cc2ccsc2)Cc2cccnc21` | 1.045 | - | -2.49 | -2.447 |
| 24 | `CCS(=O)(=O)NCc1nc(C)cc(N2CCOCC2)n1` | 0.8622 | -0.2068 | -1.34 | -6.163 |
| 25 | `O=C(Cc1ccsc1)N1CCC(c2noc(-c3cccnc3)n2)CC1` | 4.376 | -3.695 | 1.101 | 0.2433 |
| 26 | `CC(C)c1nc(/C=C/c2cnn(-c3ccccc3)c2)ncc1C(=O)O` | -19.59 | -15.47 | -5.284 | 1.882 |
| 27 | `CCc1noc(CC)c1CC(=O)N1CCCC(N2CCCCC2)C1` (stereo not given) | -1.941 | 0.1731 | -0.1652 | 1.988 |
| 28 | `COC(=O)[C@H]1C[C@@H](O)CCN1S(=O)(=O)c1cc(Cl)ccc1OC` | -19.84 | 0.2157 | 0.3458 | 1.98 |
| 29 | `CSCC(C)N(C)C(=O)c1nn(-c2ccc(F)cc2C)cc1O` (stereo not given) | -0.6733 | 12.51 | -1.834 | 0.9685 |
| 30 | `O=C(C1CCCC1)N1CC(c2nc(Cc3ccccc3)no2)C1` | -12.98 | -3.303 | 4.222 | -0.3745 |
| 31 | `CCn1nc(C)cc1C(=O)N1C[C@@H]2C[C@@H](c3noc(C)n3)O[C@@H]2C1` | -4.777 | - | - | 4 |
| 32 | `[H][C@@]12COC[C@]1([H])[C@H](N(CC)CC)CN2Cc1cnn(C)c1` | - | -2.492 | - | - |
| 33 | `O=C(O)C(F)(F)F.[H][C@@]12C[C@@H](c3nc(C)no3)O[C@]1([H])CN(Cc1ccc3c(c1)OCO3)C2` | - | 22.09 | - | - |
| 34 | `Cc1noc(Cl)c1CC(=O)NCCOc1ccc(F)cc1F` | 0.174 | 20.36 | -1.183 | -8.032 |
| 35 | `COc1ccc2c(c1)CC(C(=O)N(C)Cc1noc3c1CCCC3)CO2` (stereo not given) | -26.61 | -53.41 | -2.75 | 2.112 |

Some entries from above, unchanged:

Compound,ClpP1P2,Toxoplasma,MtTrpRS,CoaBC
CCn1nc(C)cc1C(=O)N1C[C@@H]2C[C@@H](c3noc(C)n3)O[C@@H]2C1,-4.777,-,-,4
O=C(Cc1ccsc1)N1CCC(c2noc(-c3cccnc3)n2)CC1,4.376,-3.695,1.101,0.2433
Cc1nnc(SCCNc2cc(C3CC3)ncn2)s1,-14.52,19.72,-1.354,13.19

The values are deposited in ChEMBL (CHEMBL3988442, “University of Dundee, Small-Polar-MMV Screening Library” (2021)).